Results are given in words; binding and its absence hold for the method and conditions named. Some binding calls cover weakened binding; strength is not graded here.
Key:
[1] = target: GHR-Fc-10× His (human) (human) (UniProt P10912); assay: SPR epitope binning, second Fab injected in equal molar mixture with GHR3 on GHR saturated with GHR3
[2] = target: GHR-Fc-10× His (human) (human) (UniProt P10912); assay: SPR, GHR-Fc-10× His on Ni-NTA chip, Fab as analyte
[3] = target: Growth Hormone Receptor (GHR) immobilized on a high binding plate (UniProt P10912); assay: competition ELISA: Fab titrated on plate-bound GHR preincubated with 200 nM GH, anti-human Fab-HRP
[4] = target: Growth Hormone Receptor (GHR) immobilized on a high binding plate (UniProt P10912); assay: competition ELISA: Fab prebound to plate-bound GHR, challenged with B2036 up to 1000 nM, anti-human Fab-HRP
[5] = target: Growth Hormone Receptor (GHR) immobilized on a high binding plate (UniProt P10912); assay: competition ELISA: Fab prebound to plate-bound GHR, challenged with GH 1 to 2000 nM, anti-human Fab-HRP

The chains behind the UniProt entries cited, without tags or fusion partners. Where a name states a change or a piece, a line headed by the entry shows the natural chain unless it says otherwise. A line that says so, or that is headed by a name, gives the form on record, which may keep a tag or linker. Residues count along the entry.
Growth Hormone Receptor (GHR) immobilized on a high binding plate (P10912, residues 19-264): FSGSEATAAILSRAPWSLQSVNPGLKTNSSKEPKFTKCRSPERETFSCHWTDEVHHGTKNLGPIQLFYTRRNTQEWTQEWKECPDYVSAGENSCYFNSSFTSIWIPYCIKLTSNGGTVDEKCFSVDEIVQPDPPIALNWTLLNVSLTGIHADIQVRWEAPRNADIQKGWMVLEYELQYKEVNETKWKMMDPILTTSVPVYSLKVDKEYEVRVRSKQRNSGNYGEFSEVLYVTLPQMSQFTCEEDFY
GHR-Fc-10× His (human) (P10912, form named): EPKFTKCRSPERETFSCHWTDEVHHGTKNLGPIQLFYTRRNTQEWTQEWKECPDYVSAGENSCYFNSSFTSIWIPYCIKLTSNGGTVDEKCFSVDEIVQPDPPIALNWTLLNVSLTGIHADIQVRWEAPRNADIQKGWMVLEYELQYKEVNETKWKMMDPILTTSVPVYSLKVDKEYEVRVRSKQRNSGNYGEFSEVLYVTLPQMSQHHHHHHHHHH

Row | Binder | binding [2] | further results
1 | GHR6 Fab (Fab, V domains shown, Fab) VH: EVQLVESGGGLVQPGGSLRLSCAASGFNVYYSSIHWVRQAPGKGLEWVASIYSSYGYTSYADSVKGRFTISADTSKNTAYLQMNSLRAEDTAVYYCARGQWSGLSGYWEYKALDYWGQGTLVTVSS VL: DIQMTQSPSSLSASVGDRVTITCRASQSVSSAVAWYQQKPGKAPKLLIYSASSLYSGVPSRFSGSRSGTDFTLTISSLQPEDFATYYCQQVGGSSLITFGQGTKVEIKR | binds | binding [1]: binds
2 | GHR_TS10 Fab (Fab, V domains shown) VH: EVQLVESGGGLVQPGGSLRLSCAASGFNFSSSYIHWVRQAPGKGLEWVAYISPSSGYTSYADSVKGRFTISADTSKNTAYLQMNSLRAEDTAVYYCARQYYGGWYGFGMDYWGQGTLVTVSS VL: DIQMTQSPSSLSASVGDRVTITCRASQSVSSAVAWYQQKPGKAPKLLIYSASSLYSGVPSRFSGSRSGTDFTLTISSLQPEDFATYYCQQWHSYLITFGQGTKVEIKR | – | binding [3]: binds; binding [4]: binds; binding [5]: binds
3 | GHR_TS40 Fab (Fab, V domains shown) VH: EVQLVESGGGLVQPGGSLRLSCAASGFNVSYYYIHWVRQAPGKGLEWVASIYPSSGYTSYADSVKGRFTISADTSKNTAYLQMNSLRAEDTAVYYCARYYWPASYWSGYSALDYWGQGTLVTVSS VL: DIQMTQSPSSLSASVGDRVTITCRASQSVSSAVAWYQQKPGKAPKLLIYSASSLYSGVPSRFSGSRSGTDFTLTISSLQPEDFATYYCQQYPWGLITFGQGTKVEIKR | – | binding [3]: binds; binding [4]: binds; binding [5]: binds
4 | GHR1 Fab (Fab, V domains shown, Synthetic human Fab from phage display, expressed in E. coli) VH: EVQLVESGGGLVQPGGSLRLSCAASGFNVSYSSIHWVRQAPGKGLEWVAYIYSSYGSTYYADSVKGRFTISADTSKNTAYLQMNSLRAEDTAVYYCAREYWPYYSQTGGSAMDYWGQGTLVTVSS VL: DIQMTQSPSSLSASVGDRVTITCRASQSVSSAVAWYQQKPGKAPKLLIYSASSLYSGVPSRFSGSRSGTDFTLTISSLQPEDFATYYCQQSMHPLITFGQGTKVEIKR | binds | –
5 | GHR2 Fab (Fab, V domains shown, Fab) VH: EVQLVESGGGLVQPGGSLRLSCAASGFNLYYSSIHWVRQAPGKGLEWVAYISPSYGSTSYADSVKGRFTISADTSKNTAYLQMNSLRAEDTAVYYCARYYDYSWPWYWHGGGPAFDYWGQGTLVTVSS VL: DIQMTQSPSSLSASVGDRVTITCRASQSVSSAVAWYQQKPGKAPKLLIYSASSLYSGVPSRFSGSRSGTDFTLTISSLQPEDFATYYCQQYEEYPLITFGQGTKVEIKR | binds | –
6 | GHR4 Fab (Fab, V domains shown, Fab; also called FAB4) VH: EVQLVESGGGLVQPGGSLRLSCAASGFNVYYSYIHWVRQAPGKGLEWVAYISPYSGSTSYADSVKGRFTISADTSKNTAYLQMNSLRAEDTAVYYCARQEWYAFDYWGQGTLVTVSS VL: DIQMTQSPSSLSASVGDRVTITCRASQSVSSAVAWYQQKPGKAPKLLIYSASSLYSGVPSRFSGSRSGTDFTLTISSLQPEDFATYYCQQYWSYLITFGQGTKVEIKR | binds | –
7 | GHR5 Fab (Fab, V domains shown, Fab) VH: EVQLVESGGGLVQPGGSLRLSCAASGFNVSYYSIHWVRQAPGKGLEWVAYISPSSGSTSYADSVKGRFTISADTSKNTAYLQMNSLRAEDTAVYYCARMYWQGGYSSYWQSYAMDYWGQGTLVTVSS VL: DIQMTQSPSSLSASVGDRVTITCRASQSVSSAVAWYQQKPGKAPKLLIYSASSLYSGVPSRFSGSRSGTDFTLTISSLQPEDFATYYCQQKSQYSLVTFGQGTKVEIKR | binds | –
8 | GHR7 Fab (Fab, V domains shown, Fab) VH: EVQLVESGGGLVQPGGSLRLSCAASGFNFSYSSIHWVRQAPGKGLEWVAYISSYYGYTSYADSVKGRFTISADTSKNTAYLQMNSLRAEDTAVYYCARLQHPSWYYYQGYHSGMDYWGQGTLVTVSS VL: DIQMTQSPSSLSASVGDRVTITCRASQSVSSAVAWYQQKPGKAPKLLIYSASSLYSGVPSRFSGSRSGTDFTLTISSLQPEDFATYYCQQYWSSLITFGQGTKVEIKR | binds | –
9 | GHR8 Fab (Fab, V domains shown, Fab) VH: EVQLVESGGGLVQPGGSLRLSCAASGFNISYSSIHWVRQAPGKGLEWVASIYSSYGSTYYADSVKGRFTISADTSKNTAYLQMNSLRAEDTAVYYCARSYIYSQPGFYYDSYALDYWGQGTLVTVSS VL: DIQMTQSPSSLSASVGDRVTITCRASQSVSSAVAWYQQKPGKAPKLLIYSASSLYSGVPSRFSGSRSGTDFTLTISSLQPEDFATYYCQQYGSWLITFGQGTKVEIKR | binds | –
10 | GHR9 Fab (Fab, V domains shown, Fab) VH: EVQLVESGGGLVQPGGSLRLSCAASGFNVSYSSIHWVRQAPGKGLEWVASISSSYGSTYYADSVKGRFTISADTSKNTAYLQMNSLRAEDTAVYYCARYYDYSWSTYKGIGTGAIDYWGQGTLVTVSS VL: DIQMTQSPSSLSASVGDRVTITCRASQSVSSAVAWYQQKPGKAPKLLIYSASSLYSGVPSRFSGSRSGTDFTLTISSLQPEDFATYYCQQYWYSYLITFGQGTKVEIKR | binds | –
11 | GHR10 Fab (Fab, V domains shown, Fab) VH: EVQLVESGGGLVQPGGSLRLSCAASGFNFSYYSIHWVRQAPGKGLEWVASISSYYGSTSYADSVKGRFTISADTSKNTAYLQMNSLRAEDTAVYYCARTEYSFGMYWAHTGMDYWGQGTLVTVSS VL: DIQMTQSPSSLSASVGDRVTITCRASQSVSSAVAWYQQKPGKAPKLLIYSASSLYSGVPSRFSGSRSGTDFTLTISSLQPEDFATYYCQQFWSSEPITFGQGTKVEIKR | binds | –
12 | GHR11 Fab (Fab, V domains shown, Fab) VH: EVQLVESGGGLVQPGGSLRLSCAASGFNLSYYYIHWVRQAPGKGLEWVASIYSSSGYTYYADSVKGRFTISADTSKNTAYLQMNSLRAEDTAVYYCARQYPYSWSSYGFSSGALDYWGQGTLVTVSS VL: DIQMTQSPSSLSASVGDRVTITCRASQSVSSAVAWYQQKPGKAPKLLIYSASSLYSGVPSRFSGSRSGTDFTLTISSLQPEDFATYYCQQYFAYYSPITFGQGTKVEIKR | binds | –
13 | GHR13 Fab (Fab, V domains shown, Fab) VH: EVQLVESGGGLVQPGGSLRLSCAASGFNVYYSSIHWVRQAPGKGLEWVAYIYPSSGSTSYADSVKGRFTISADTSKNTAYLQMNSLRAEDTAVYYCARSWQWYYPGWEQYGWYGMDYWGQGTLVTVSS VL: DIQMTQSPSSLSASVGDRVTITCRASQSVSSAVAWYQQKPGKAPKLLIYSASSLYSGVPSRFSGSRSGTDFTLTISSLQPEDFATYYCQQSGGSLVTFGQGTKVEIKR | binds | –
14 | GHR14 Fab (Fab, V domains shown, Fab) VH: EVQLVESGGGLVQPGGSLRLSCAASGFNISSSYIHWVRQAPGKGLEWVASISSYYGYTSYADSVKGRFTISADTSKNTAYLQMNSLRAEDTAVYYCARSYGSYYGYYHYWEWYGLDYWGQGTLVTVSS VL: DIQMTQSPSSLSASVGDRVTITCRASQSVSSAVAWYQQKPGKAPKLLIYSASSLYSGVPSRFSGSRSGTDFTLTISSLQPEDFATYYCQQWQYWSPVTFGQGTKVEIKR | binds | –
15 | GHR15 Fab (Fab, V domains shown, Fab) VH: EVQLVESGGGLVQPGGSLRLSCAASGFNVSSSSIHWVRQAPGKGLEWVASIYSYYGYTSYADSVKGRFTISADTSKNTAYLQMNSLRAEDTAVYYCARSSGYHGWYWNGMDYWGQGTLVTVSS VL: DIQMTQSPSSLSASVGDRVTITCRASQSVSSAVAWYQQKPGKAPKLLIYSASSLYSGVPSRFSGSRSGTDFTLTISSLQPEDFATYYCQQWYGMSLVTFGQGTKVEIKR | binds | –
16 | GHR16 Fab (Fab, V domains shown) VH: EVQLVESGGGLVQPGGSLRLSCAASGFNFSSSSIHWVRQAPGKGLEWVAYISPYYGSTSYADSVKGRFTISADTSKNTAYLQMNSLRAEDTAVYYCARSWYSTYDYRMHVWHQGGLDYWGQGTLVTVSS VL: DIQMTQSPSSLSASVGDRVTITCRASQSVSSAVAWYQQKPGKAPKLLIYSASSLYSGVPSRFSGSRSGTDFTLTISSLQPEDFATYYCQQSISYSYLITFGQGTKVEIKR | binds | –
